Laboratory results: the supplement of paper PMC8104966
Some of the results follow. Single values are uncertain here, since repeats match poorly.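 U2OS cells expressing ACE2 were combined with U2OS cells expressing full-length spike, and imaging quantified fusion as the fraction of nuclei displaying both cell types' fluorescent markers. Non-toxic compounds with a fusion z-score under -3, i.e., over three standard deviations below the plate's DMSO wells, are called inhibitory hits.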

The compounds below were run on U2OS ACE2 x SARS-CoV-2 spike co-culture (assay: cell-cell fusion (fraction fused) z-score vs plate DMSO control; higher = more fusion). Conditions: 30 µM; 5 h; toxicity class: non-toxic, passed QC.

| SMILES | cell-cell fusion (z-score) |
| --- | --- |
| O=C(O)c1cccnc1C(=O)O [Quinolinic acid] | inactive: 2.2 |
| O=C(O)c1cccnc1C(=O)O | inactive: 3.55 |
| COc1ccc2cc1Oc1ccc(cc1)C[C@H]1c3c(cc4c(c3Oc3cc5c(cc3OC)CCN(C)[C@@H]5C2)OCO4)CCN1C | inactive: 0.53 |
| CCC(=O)O[C@]1(C(=O)CCl)[C@@H](C)CC2C3CCC4=CC(=O)C=C[C@]4(C)[C@@]3(F)[C@@H](O)C[C@@]21C (stereo not given in full) | inactive: 0.798 |
| O=c1cc(N2CCOCC2)oc2c(-c3ccccc3)cccc12 | inactive: 0.169 |
| COc1ccc2c(c1)c(CC(=O)OCC(=O)O)c(C)n2C(=O)c1ccc(Cl)cc1 | inactive: 1.51 |
| CC12CCCC(O)(C1)C1CC(C)(C)C1CC2 (stereo not drawn) [beta-CARYOPHYLLENE ALCOHOL] | inactive: 3.44 |
| NCCc1c[nH]c2ccccc12 | inactive: 1.59 |
| CC(=O)N[C@@H](CS)C(=O)O [Acetylcysteine] | inactive: 2.93 |
| O=C(O)c1cccnc1Nc1cccc(C(F)(F)F)c1 | inactive: 0.00216 |
| CC(C)=CCC[C@@H](C)CC=O | inactive: 2.45 |
| CC(=O)OCC(=O)[C@@]12OC(C)(C)O[C@@H]1C[C@H]1[C@@H]3C[C@H](F)C4=CC(=O)C=C[C@]4(C)[C@@]3(F)[C@@H](O)C[C@@]12C [Fluocinonide] | inactive: 2.87 |
| Cl.N=c1ccn2c(n1)O[C@@H]1[C@@H](O)[C@H](CO)O[C@@H]12 | inactive: -1.71 |
| CN/C(=C/[N+](=O)[O-])NCCSCc1ccc(CN(C)C)o1.Cl [Ranitidine Hydrochloride] | inactive: 2.18 |
| Cn1c(=O)c(F)c(Nc2ccc(I)cc2F)c2c(=O)n(C[C@@H](O)CO)cnc21 | inactive: 0.467 |
| O=C([O-])CCCO.[Na+] | inactive: 0.91 |
| CCOC(=O)C1=C(O)C(=O)N(c2ccccc2)C1 | inactive: 1.71 |
| COc1ccc(Cc2nccc3cc(OC)c(OC)cc23)cc1OC.Cl | inactive: -1.76 |
| CC1CCc2c(N3CCC(O)CC3)c(F)cc3c(=O)c(C(=O)O)cn1c23 (stereo not given) | inactive: 1.12 |
| CC(C)NCC(O)COc1cccc2ccccc12.Cl (racemic) [(±)-Propranolol hydrochloride] | inactive: 2.19 |
| CC(C)(Oc1ccc(Cl)cc1)C(=O)O [Clofibric acid] | inactive: 3.66 |
| COc1cc(OC)c(C(=O)CCCN2CCCC2)c(OC)c1.Cl | inactive: 1.59 |
| N[C@@H](CC(=O)N1CCn2c(nnc2C(F)(F)F)C1)Cc1cc(F)c(F)cc1F [Sitagliptin] | inactive: 2.52 |
| Nc1nc(=O)c2nc(CNc3ccc(C(=O)N[C@@H](CCC(=O)O)C(=O)O)cc3)cnc2[nH]1 | inactive: 1.35 |
| COc1nc(N)nc2c1ncn2[C@@H]1O[C@H](CO)[C@@H](O)[C@@H]1O [Nelarabine] | inactive: 1.06 |

20 successive entries from above, for reference:

| SMILES | cell-cell fusion (z-score) |
| --- | --- |
| COc1ccc2cc1Oc1ccc(cc1)C[C@H]1c3c(cc4c(c3Oc3cc5c(cc3OC)CCN(C)[C@@H]5C2)OCO4)CCN1C | inactive: 0.53 |
| CCC(=O)O[C@]1(C(=O)CCl)[C@@H](C)CC2C3CCC4=CC(=O)C=C[C@]4(C)[C@@]3(F)[C@@H](O)C[C@@]21C (stereo not given in full) | inactive: 0.798 |
| O=c1cc(N2CCOCC2)oc2c(-c3ccccc3)cccc12 | inactive: 0.169 |
| COc1ccc2c(c1)c(CC(=O)OCC(=O)O)c(C)n2C(=O)c1ccc(Cl)cc1 | inactive: 1.51 |
| CC12CCCC(O)(C1)C1CC(C)(C)C1CC2 (stereo not drawn) [beta-CARYOPHYLLENE ALCOHOL] | inactive: 3.44 |
| NCCc1c[nH]c2ccccc12 | inactive: 1.59 |
| CC(=O)N[C@@H](CS)C(=O)O [Acetylcysteine] | inactive: 2.93 |
| O=C(O)c1cccnc1Nc1cccc(C(F)(F)F)c1 | inactive: 0.00216 |
| CC(C)=CCC[C@@H](C)CC=O | inactive: 2.45 |
| CC(=O)OCC(=O)[C@@]12OC(C)(C)O[C@@H]1C[C@H]1[C@@H]3C[C@H](F)C4=CC(=O)C=C[C@]4(C)[C@@]3(F)[C@@H](O)C[C@@]12C [Fluocinonide] | inactive: 2.87 |
| Cl.N=c1ccn2c(n1)O[C@@H]1[C@@H](O)[C@H](CO)O[C@@H]12 | inactive: -1.71 |
| CN/C(=C/[N+](=O)[O-])NCCSCc1ccc(CN(C)C)o1.Cl [Ranitidine Hydrochloride] | inactive: 2.18 |
| Cn1c(=O)c(F)c(Nc2ccc(I)cc2F)c2c(=O)n(C[C@@H](O)CO)cnc21 | inactive: 0.467 |
| O=C([O-])CCCO.[Na+] | inactive: 0.91 |
| CCOC(=O)C1=C(O)C(=O)N(c2ccccc2)C1 | inactive: 1.71 |
| COc1ccc(Cc2nccc3cc(OC)c(OC)cc23)cc1OC.Cl | inactive: -1.76 |
| CC1CCc2c(N3CCC(O)CC3)c(F)cc3c(=O)c(C(=O)O)cn1c23 (stereo not given) | inactive: 1.12 |
| CC(C)NCC(O)COc1cccc2ccccc12.Cl (racemic) [(±)-Propranolol hydrochloride] | inactive: 2.19 |
| CC(C)(Oc1ccc(Cl)cc1)C(=O)O [Clofibric acid] | inactive: 3.66 |
| COc1cc(OC)c(C(=O)CCCN2CCCC2)c(OC)c1.Cl | inactive: 1.59 |

Additional results follow:

| SMILES | cell-cell fusion (z-score) |
| --- | --- |
| COc1ccc(-c2oc3cc(OC)c(OC)c(OC)c3c(=O)c2OC)cc1OC | inactive: 1.29 |
| C[C@H](Nc1ncnc2nc[nH]c12)c1cc2cccc(Cl)c2c(=O)n1-c1ccccc1 [Duvelisib] | inactive: 0.335 |
| C=CC(=O)Nc1ccc2ncnc(Nc3cccc(Br)c3)c2c1 | inactive: -2.41 |
| C=CC(N)CCC(=O)O.NCCO (stereo not given) | inactive: -1.22 |
| O=C(OCc1ccccc1)c1ccccc1 | inactive: 2.7 |
| COc1ccc(C(=O)Nc2sc3c(c2C(N)=O)CCCC3)cc1OC | inactive: 1.33 |
| CC1(C)[C@@H]2CC[C@]1(C)C(=O)C2 | inactive: 0.606 |
| O=c1[n-]c(=O)n(Cl)c(=O)n1Cl.[K+] | inactive: 0.837 |
| Nc1nc(NC2CC2)c2ncn([C@H]3C=C[C@@H](CO)C3)c2n1.Nc1nc(NC2CC2)c2ncn([C@H]3C=C[C@@H](CO)C3)c2n1.O=S(=O)(O)O [Abacavir sulfate] | inactive: 2.2 |
| CCCCCc1c2c(cc(O)c1C(=O)O)OC(=O)c1c(cc(OC)cc1C(=O)CCCC)O2 | inactive: 2.97 |
| CC(=O)OC1CCC23C(=O)OC45CCC(C6=CC(=O)OC6)C4(C)CCC2C5CCC3(O)C1 (stereo not given) | inactive: 2.35 |
| N[C@@H](Cc1cc(I)c(Oc2cc(I)c(O)c(I)c2)c(I)c1)C(=O)O | inactive: 2.26 |
| COc1cc(C(=O)NCc2ccc(OCCN(C)C)cc2)cc(OC)c1OC.Cl | inactive: 2.55 |
| O=c1oc(Cl)c(Cl)c2ccccc12 [3,4-Dichloroisocoumarin] | inactive: 2.67 |
| CCCCS(=N)(=O)CCC(N)C(=O)O (stereo not given) | inactive: 3.79 |
| COc1ccc(Cl)cc1C(=O)NCCc1ccc(S(=O)(=O)NC(=O)NC2CCCCC2)cc1 | inactive: -1.17 |
| O=C(O)[C@@H]1CCN1 [L-azetidine-2-carboxylic acid] | inactive: 1.82 |
| CCCCCCC/C=C\CCCCCCCCC(=O)O [Oleic Acid] | inactive: 2.98 |
| O=C(/C=C/c1cccc(S(=O)(=O)Nc2ccccc2)c1)NO [Belinostat (PXD101)] | inactive: 0.466 |
| CN(C)CC(c1ccc(O)cc1)C1(O)CCCCC1.O=C(O)CCC(=O)O (stereo not given) [Desvenlafaxine succinate hydrate] | inactive: 1.55 |
| CN(C)CC(c1ccc(O)cc1)C1(O)CCCCC1.O=C(O)CCC(=O)O (stereo not given) | inactive: 2.49 |
| CNCC(O)c1ccc(O)cc1 (stereo not given) | active: -3.74 |
| O=C([O-])c1cc(/N=N/c2ccc(O)c(C(=O)[O-])c2)ccc1O.[Na+].[Na+] | inactive: 0.393 |
| Cn1c(=O)c2nc(C3CCCC3)[nH]c2n(C)c1=O | inactive: 1.23 |
| Cl.N=C(N)NC(=O)c1nc(Cl)c(N)nc1N [Amiloride hydrochloride] | inactive: 2.28 |

| SMILES | cell-cell fusion (z-score) |
| --- | --- |
| Cc1cccn2c(=O)c(-c3nnn[n-]3)cnc12.[K+] [Pemirolast potassium] | inactive: 2.87 |
| O=C1CCC[C@H]2[C@@H]3CCCN4CCC[C@H](CN12)[C@H]34 | inactive: 1.56 |
| CN1C(C(=O)Nc2ccccn2)=C(O)c2sccc2S1(=O)=O | inactive: 1.97 |
| NC(=O)c1ccc2[nH]c(-c3ccc(Oc4ccc(Cl)cc4)cc3)nc2c1 | active: -5.92 |
| NCC(O)(CS(=O)(=O)O)c1ccc(Cl)cc1 (stereo not given) [2-Hydroxysaclofen] | inactive: 0.773 |
| CC(C)CC1C(=O)N2CCC[C@H]2C2(O)O[C@](NC(=O)C3C=C4c5cccc6[nH]c(Br)c(c56)C[C@H]4N(C)C3)(C(C)C)C(=O)N12.CS(=O)(=O)O (stereo not given in full) | inactive: 1.22 |
| CC[C@H]1[C@@H](O)[C@@H]2[C@H](CC[C@]3(C)[C@@H]([C@H](C)CCC(=O)O)CC[C@@H]23)[C@@]2(C)CC[C@@H](O)C[C@@H]12 [Obeticholic Acid] | inactive: 0.435 |
| CC(C)[C@H](N)C(=O)OCC(CO)OCn1cnc2c(=O)nc(N)[nH]c21.Cl (stereo not given in full) [Valganciclovir hydrochloride] | inactive: 2.97 |
| NC(=O)CN1CCCC1=O | inactive: 2.58 |
| NC(=O)CN1CCCC1=O [Piracetam] | inactive: 2.46 |
| C=CC1=C(C)c2cc3[nH]c(cc4nc(cc5[nH]c(cc1n2)c(C)c5CCC(=O)O)C(CCC(=O)OC)=C4C)[C@@]1(C)C3=CC=C(C(=O)OC)[C@H]1C(=O)OC.C=CC1=C(C)c2cc3[nH]c(cc4nc(cc5[nH]c(cc1n2)c(C)c5CCC(=O)OC)C(CCC(=O)O)=C4C)[C@@]1(C)C3=CC=C(C(=O)OC)[C@H]1C(=O)OC [Verteporfin] | inactive: -1.81 |
| CC[C@@H]1C(=O)OC[C@@H]1Cc1cncn1C.O=[N+]([O-])O [Pilocarpine nitrate] | inactive: 2.93 |
| CC(C)(C)NCC(O)c1ccc(O)c(CO)c1 (stereo not given) [Salbutamol] | inactive: -0.175 |
| CCOc1ccc(NC(=O)CC(C)O)cc1 (stereo not given) | inactive: 2.96 |
| COc1ccc2c(c1)CCC(c1ccccc1)=C2c1ccc(OCCN2CCCC2)cc1.Cl [Nafoxidine] | inactive: -0.971 |
| CC(NC(C)(C)C)C(=O)c1cccc(Cl)c1.Cl (stereo not given) [Bupropion hydrochloride] | inactive: 1.59 |
| COc1ccc2c(c1OC)C(=O)O[C@@H]2[C@H]1c2c(cc3c(c2OC)OCO3)CCN1C.Cl [Noscapine hydrchloride] | inactive: 3.59 |
| CCOC(=O)C1=C[C@@H](OC(CC)CC)[C@H](NC(C)=O)[C@@H](N)C1.O=P(O)(O)O [Oseltamivir phosphate] | inactive: 1.86 |
| NC(=O)c1cc[n+](CC2=C(C(=O)[O-])N3C(=O)[C@@H](NC(=O)Cc4cccs4)[C@H]3SC2)cc1 | inactive: 1.16 |
| CC(=O)[C@@]1(O)CC[C@H]2[C@@H]3C=C(Cl)C4=CC(=O)[C@@H]5C[C@@H]5[C@]4(C)[C@H]3CC[C@@]21C | inactive: 4.98 |
| O=C(O)c1ccc2ccccc2c1O.OCc1cc(C(O)CNCCCCCCOCCCCc2ccccc2)ccc1O (stereo not given) [Salmeterol Xinafoate] | inactive: -2.7 |
| COc1ccc2[nH]c(S(=O)Cc3ncc(C)c(OC)c3C)nc2n1 (stereo not given) | inactive: -1.15 |
| CC[C@@H](C(N)=O)N1CCCC1=O [Levetiracetam] | inactive: 2.34 |
| COS(C)(=O)=O | inactive: 2.37 |
| O=[N+]([O-])/C=C/c1ccc2c(c1)OCO2 | active: -5.53 |
